Source: the supplement of paper PMC10849652
The list shows a part of the results.

Chains of the proteins cited; added tags and fusions are not shown. Lines headed by an entry give the natural chain unless they say otherwise; changes in a name come on top.
UniProt O60725, whole entry, looked up: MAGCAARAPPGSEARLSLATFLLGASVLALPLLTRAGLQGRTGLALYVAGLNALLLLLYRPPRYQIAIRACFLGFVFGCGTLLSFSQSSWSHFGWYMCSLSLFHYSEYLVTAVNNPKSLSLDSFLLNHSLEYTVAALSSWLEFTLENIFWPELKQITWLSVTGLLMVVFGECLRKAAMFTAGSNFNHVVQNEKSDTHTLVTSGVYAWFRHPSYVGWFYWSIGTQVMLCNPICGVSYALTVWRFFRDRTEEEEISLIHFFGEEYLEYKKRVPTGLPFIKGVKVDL
UniProt Q8N6C5: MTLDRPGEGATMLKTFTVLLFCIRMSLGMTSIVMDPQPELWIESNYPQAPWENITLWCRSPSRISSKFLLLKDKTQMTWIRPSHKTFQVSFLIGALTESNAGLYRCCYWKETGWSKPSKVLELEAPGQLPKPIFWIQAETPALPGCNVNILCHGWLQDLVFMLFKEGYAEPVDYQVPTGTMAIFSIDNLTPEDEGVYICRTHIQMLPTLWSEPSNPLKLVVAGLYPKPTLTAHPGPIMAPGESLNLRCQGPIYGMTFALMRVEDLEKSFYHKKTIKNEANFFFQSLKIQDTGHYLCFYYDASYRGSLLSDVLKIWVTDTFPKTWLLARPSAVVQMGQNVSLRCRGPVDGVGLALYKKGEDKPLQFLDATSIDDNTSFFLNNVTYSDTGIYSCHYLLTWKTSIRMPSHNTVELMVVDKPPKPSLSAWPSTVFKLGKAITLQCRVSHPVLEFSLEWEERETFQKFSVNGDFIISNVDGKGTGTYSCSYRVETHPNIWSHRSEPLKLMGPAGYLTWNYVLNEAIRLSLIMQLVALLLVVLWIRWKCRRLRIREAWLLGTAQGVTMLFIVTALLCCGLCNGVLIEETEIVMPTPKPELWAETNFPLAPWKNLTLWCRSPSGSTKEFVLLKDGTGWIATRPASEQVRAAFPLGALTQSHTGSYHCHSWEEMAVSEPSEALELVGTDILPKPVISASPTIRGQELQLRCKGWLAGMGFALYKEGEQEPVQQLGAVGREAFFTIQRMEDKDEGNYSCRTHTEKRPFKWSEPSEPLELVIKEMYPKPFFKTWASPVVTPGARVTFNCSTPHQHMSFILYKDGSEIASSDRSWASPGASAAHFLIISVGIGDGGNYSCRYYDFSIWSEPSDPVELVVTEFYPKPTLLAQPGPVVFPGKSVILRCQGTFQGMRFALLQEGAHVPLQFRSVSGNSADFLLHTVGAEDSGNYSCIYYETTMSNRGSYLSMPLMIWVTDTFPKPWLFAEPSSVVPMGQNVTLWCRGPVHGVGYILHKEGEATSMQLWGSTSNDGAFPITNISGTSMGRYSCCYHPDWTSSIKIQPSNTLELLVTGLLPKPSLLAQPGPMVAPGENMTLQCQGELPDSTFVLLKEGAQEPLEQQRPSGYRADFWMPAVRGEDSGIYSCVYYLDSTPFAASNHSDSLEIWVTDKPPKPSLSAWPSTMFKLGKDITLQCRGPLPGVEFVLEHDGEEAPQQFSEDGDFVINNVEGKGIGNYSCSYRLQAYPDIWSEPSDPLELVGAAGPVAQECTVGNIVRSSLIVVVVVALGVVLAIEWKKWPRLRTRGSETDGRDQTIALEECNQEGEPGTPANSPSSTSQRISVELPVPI
UniProt Q9NQC8: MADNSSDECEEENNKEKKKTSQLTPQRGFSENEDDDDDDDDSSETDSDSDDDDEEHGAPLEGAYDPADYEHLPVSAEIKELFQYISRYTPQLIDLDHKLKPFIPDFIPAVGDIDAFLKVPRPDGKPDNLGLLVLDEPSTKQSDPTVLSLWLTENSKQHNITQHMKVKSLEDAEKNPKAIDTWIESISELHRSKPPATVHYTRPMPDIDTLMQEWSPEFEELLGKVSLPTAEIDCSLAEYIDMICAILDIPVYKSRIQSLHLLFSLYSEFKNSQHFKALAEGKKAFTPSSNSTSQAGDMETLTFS
UniProt P30939: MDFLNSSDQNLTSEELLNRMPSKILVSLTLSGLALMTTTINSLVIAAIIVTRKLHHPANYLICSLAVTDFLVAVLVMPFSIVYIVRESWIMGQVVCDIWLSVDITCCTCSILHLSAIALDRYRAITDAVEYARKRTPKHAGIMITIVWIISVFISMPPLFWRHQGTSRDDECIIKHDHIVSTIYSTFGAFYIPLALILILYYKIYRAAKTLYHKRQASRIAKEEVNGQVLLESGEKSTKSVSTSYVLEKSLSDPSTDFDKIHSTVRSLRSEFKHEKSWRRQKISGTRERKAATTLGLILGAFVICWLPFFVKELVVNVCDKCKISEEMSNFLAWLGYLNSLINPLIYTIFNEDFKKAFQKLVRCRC
UniProt P50213: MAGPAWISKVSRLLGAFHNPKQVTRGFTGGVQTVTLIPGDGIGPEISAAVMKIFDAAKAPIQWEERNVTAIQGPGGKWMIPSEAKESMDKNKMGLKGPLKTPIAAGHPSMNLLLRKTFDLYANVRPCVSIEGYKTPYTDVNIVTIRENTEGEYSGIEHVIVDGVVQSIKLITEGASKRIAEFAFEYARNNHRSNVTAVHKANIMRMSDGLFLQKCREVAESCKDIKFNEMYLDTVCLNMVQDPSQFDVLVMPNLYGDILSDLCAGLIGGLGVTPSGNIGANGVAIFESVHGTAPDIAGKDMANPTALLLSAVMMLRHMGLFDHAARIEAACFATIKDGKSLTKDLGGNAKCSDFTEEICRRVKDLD
UniProt P22304: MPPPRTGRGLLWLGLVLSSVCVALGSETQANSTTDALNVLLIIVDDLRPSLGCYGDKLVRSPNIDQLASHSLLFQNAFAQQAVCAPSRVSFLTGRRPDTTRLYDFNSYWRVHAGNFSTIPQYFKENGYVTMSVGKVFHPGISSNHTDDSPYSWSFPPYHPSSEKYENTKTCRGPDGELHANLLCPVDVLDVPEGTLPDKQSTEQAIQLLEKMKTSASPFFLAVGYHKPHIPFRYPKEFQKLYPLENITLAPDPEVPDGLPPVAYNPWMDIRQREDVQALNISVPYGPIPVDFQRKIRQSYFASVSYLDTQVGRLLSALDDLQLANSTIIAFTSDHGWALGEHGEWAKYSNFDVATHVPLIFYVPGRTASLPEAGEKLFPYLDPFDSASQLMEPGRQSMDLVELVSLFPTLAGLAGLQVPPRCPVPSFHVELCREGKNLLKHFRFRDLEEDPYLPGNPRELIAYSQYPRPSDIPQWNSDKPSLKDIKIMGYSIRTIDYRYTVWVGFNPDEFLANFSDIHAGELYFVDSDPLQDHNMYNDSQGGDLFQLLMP
UniProt Q8WYA0: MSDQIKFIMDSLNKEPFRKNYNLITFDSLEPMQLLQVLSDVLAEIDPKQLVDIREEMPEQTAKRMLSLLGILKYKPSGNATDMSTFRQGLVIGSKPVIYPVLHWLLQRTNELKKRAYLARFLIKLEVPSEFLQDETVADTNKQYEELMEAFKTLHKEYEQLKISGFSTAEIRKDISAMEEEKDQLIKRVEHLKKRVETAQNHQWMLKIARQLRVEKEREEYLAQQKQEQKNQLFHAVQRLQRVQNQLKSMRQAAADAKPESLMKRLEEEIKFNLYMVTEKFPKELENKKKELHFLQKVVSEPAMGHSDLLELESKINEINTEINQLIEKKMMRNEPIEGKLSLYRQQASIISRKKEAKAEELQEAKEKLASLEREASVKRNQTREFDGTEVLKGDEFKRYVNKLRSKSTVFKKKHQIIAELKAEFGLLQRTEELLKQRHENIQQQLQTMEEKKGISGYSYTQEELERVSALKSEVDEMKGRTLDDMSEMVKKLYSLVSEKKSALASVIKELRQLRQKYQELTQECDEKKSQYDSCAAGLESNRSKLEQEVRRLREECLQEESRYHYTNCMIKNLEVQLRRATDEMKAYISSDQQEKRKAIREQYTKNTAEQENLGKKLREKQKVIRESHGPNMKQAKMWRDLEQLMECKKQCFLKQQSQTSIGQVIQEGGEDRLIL
UniProt Q96D96: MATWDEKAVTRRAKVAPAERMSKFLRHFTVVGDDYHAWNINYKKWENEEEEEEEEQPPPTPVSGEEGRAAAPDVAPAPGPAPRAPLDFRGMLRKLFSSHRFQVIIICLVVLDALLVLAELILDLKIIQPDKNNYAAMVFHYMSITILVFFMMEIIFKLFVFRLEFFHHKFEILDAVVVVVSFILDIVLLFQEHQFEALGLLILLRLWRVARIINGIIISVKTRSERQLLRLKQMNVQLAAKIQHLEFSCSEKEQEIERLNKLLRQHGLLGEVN
UniProt P22692: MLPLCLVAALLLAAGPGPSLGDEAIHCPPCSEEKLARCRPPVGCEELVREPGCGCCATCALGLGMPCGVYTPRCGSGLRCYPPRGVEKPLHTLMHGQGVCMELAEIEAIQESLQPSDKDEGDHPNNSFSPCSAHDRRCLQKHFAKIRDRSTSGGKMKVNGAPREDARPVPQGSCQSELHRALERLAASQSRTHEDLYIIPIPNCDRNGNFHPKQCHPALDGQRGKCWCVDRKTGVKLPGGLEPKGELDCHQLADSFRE
UniProt Q96F46, whole entry, looked up: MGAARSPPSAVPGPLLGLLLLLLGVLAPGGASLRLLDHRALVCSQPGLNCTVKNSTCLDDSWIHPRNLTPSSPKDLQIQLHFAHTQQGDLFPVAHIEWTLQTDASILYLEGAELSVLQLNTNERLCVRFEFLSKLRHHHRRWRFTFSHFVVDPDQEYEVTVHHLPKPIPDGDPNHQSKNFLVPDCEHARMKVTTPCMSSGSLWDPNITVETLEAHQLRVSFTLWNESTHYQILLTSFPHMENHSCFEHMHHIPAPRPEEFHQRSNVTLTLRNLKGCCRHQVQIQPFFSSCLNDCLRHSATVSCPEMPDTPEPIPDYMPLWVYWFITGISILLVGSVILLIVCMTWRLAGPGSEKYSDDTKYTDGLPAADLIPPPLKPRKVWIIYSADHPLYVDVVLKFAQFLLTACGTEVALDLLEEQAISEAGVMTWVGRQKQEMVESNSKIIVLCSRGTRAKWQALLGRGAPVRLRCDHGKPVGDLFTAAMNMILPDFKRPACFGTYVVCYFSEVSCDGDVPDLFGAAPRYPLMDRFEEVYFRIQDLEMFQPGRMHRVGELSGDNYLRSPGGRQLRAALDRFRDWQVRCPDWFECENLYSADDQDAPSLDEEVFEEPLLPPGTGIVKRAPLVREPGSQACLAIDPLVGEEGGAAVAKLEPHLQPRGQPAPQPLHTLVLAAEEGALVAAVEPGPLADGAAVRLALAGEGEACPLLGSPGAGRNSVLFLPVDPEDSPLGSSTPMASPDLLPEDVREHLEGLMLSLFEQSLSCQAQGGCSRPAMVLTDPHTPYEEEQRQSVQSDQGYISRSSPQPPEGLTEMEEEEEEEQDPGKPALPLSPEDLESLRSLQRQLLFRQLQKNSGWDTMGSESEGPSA
UniProt Q6PI98, whole entry, looked up: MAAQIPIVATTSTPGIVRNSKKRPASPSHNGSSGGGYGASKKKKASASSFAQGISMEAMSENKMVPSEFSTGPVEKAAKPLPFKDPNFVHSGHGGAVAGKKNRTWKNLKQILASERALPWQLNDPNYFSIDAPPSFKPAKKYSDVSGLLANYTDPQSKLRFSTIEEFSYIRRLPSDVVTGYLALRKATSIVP
UniProt Q9H2S9: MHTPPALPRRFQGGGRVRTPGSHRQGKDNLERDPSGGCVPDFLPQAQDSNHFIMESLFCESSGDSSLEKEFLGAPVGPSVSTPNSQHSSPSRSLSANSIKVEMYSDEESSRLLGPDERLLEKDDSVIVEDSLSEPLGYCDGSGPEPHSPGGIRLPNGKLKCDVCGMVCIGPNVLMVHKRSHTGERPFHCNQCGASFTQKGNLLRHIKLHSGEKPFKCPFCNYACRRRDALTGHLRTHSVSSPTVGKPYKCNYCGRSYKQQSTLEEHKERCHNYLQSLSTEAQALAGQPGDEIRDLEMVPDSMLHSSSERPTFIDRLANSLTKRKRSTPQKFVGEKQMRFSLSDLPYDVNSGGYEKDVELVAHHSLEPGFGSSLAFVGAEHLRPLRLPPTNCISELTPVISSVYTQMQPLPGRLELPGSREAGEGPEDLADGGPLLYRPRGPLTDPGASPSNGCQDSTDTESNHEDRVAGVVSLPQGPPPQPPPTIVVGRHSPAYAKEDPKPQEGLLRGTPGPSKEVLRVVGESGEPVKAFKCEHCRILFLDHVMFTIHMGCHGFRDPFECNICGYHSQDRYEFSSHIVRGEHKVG
UniProt Q9UK53: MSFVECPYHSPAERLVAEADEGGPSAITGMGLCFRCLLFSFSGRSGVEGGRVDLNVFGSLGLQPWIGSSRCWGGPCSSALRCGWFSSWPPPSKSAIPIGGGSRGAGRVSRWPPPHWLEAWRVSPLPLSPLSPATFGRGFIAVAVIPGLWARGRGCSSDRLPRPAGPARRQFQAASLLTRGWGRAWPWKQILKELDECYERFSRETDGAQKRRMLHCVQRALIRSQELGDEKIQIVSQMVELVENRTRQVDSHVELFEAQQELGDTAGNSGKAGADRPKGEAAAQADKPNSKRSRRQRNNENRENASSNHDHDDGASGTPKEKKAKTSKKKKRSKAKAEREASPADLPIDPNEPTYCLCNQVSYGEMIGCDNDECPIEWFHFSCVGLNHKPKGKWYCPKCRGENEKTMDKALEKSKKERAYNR

compound: C1=CC2=C(C=CC(=C2)/C=C\3/C(=O)NC(=NCC4=CC=CS4)S3)N=C1; assay: log2 fold change, soluble protein after heating vs DMSO (PISA); higher = thermal stabilisation; K562 lysate, 10 uM; active = over 0.2 and 3.5 SD of the protein, either way, in both replicates (recomputed)
In short: (§1)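 Log-two fold change in thermal stability relative to solvent controls is reported from duplicates. For each sample, crude K562 extract from dounce-homogenised pellets in PBS pH 7.4 with 1 mM MgCl2, at 1 mg/mL protein, was treated with 10 μM compound for 30 min. Aliquots heated for 3 min across 48°C-58°C were pooled, brought to 0.5% NP-40 at 4°C and cleared at 21,000xg for 90 min. The supernatant was quantified by TMTpro 16plex LC-MS/MS with channel sums equalised.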

log2 fold change, inactive:
ICMT (UniProt O60725) -0.01
IFT122 isoform 5 (UniProt Q9HBG6) 0
HYDIN (UniProt Q4G0P3) 0.005
IGSF1 isoform 4 (UniProt Q8N6C5) 0.115
HTD2 (UniProt P86397) -0.086
IFT46 isoform 2 (UniProt Q9NQC8) -0.032
HTR1F (UniProt P30939) -0.02
IDH3A isoform 2 (UniProt P50213) 0.064
IMPDH2 (UniProt H0Y4R1) 0.023

compound: C1=CC2=NC=CN=C2C=C1/C=C/3\C(=O)NC(=O)S3; assay: as above
In short: as §1

log2 fold change, inactive:
ICMT (UniProt O60725) -0.049
ICOSLG isoform 2 (UniProt O75144) -0.045
ICE1 (UniProt Q9Y2F5) 0.122
HYOU1, A0A494C039 0.072
IDS (UniProt P22304) 0.101
IFT81 (UniProt Q8WYA0) 0.105
ICAM4 (UniProt Q14773) -0.1
HVCN1 (UniProt Q96D96) 0.031
HSPA8 (UniProt E9PN89) -0.095
HYKK (UniProt A2RU49) -0.107
HSPH1 (UniProt Q5TBM3) 0.039
IGFBP4 (UniProt P22692) 0.218
IFIH1 (UniProt Q9BYX4) 0.117
IL17RA (UniProt Q96F46) 0.004
HTD2 (UniProt P86397) 0.019
INO80C isoform 4 (UniProt Q6PI98) -0.097
HSPH1 isoform 2 (UniProt Q92598) -0.149
HTR1F (UniProt P30939) 0.213
IKZF4 (UniProt Q9H2S9) 0.026
IDH3A isoform 2 (UniProt P50213) 0.059
IGHG3 (UniProt P01860) 0.366
HUWE1, A0A087X1S3 -0.017
ING1 (UniProt Q9UK53) -0.222
IGHMBP2 (UniProt P38935) -0.112
IMPDH2 (UniProt H0Y4R1) -0.118
ING4 (UniProt Q9UNL4) -0.166
